Experimental data reported in the supplement of paper PMC7125110.
± gives the standard error. The uncertainty is large for many entries.

B1: glmS ribozyme (parent)
chain: AUAAAAGCGCCAGAACUACAGAAAUGUAGUUGACGAGGAGGAGGUUUAUCGAAUUUUCGGCGGAUGCCUCCAAA

Variants of: B1
Assay: KM; higher = weaker cofactor use; RNA array
Settings: with glucosamine-6-phosphate
Outline: (§1)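 The measurements used barcoded ribozyme variants on sequenced MiSeq chips, transcribed in situ by E. coli RNA polymerase and tracked at 37 °C with a hybridised Cy3 probe. Glucosamine-6-phosphate, 40 μM to 10 mM in HEPES/KCl/Mg(OAc)2 buffer, was flowed in while tiles were imaged over ~14 h. Baseline-normalised signals, also normalised to non-cleaving reference variants, gave per-tile medians that were fit to one- or two-exponential decays for kobs. kcat and KM resulted from weighted Michaelis–Menten fits across concentrations.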

Question: For A33U G40U, which KM is on record?
Answer: Its KM is 21400 ± 2300 µM.

Question: How did the KM turn out when A33U U49G was run?
Answer: The KM was 44.7 ± 12 µM.

Question: How did the KM turn out when A33U U54A was run?
Answer: Its KM is 993 ± 650 µM.

Question: For A33U U65A, which KM is on record?
Answer: The KM was 11600 ± 970 µM.

Question: With C34A A53G as the variant, how does the KM read?
Answer: Its KM is 2740 ± 2300 µM.

Question: How did the KM turn out when C34A U55G was run?
Answer: The KM was 49.8 ± 49 µM.

Question: Which KM does the source give for C34U G43A here?
Answer: Its KM is 123 ± 110 µM.

Question: How did the KM turn out when G35A C50G was run?
Answer: The KM was 1190 ± 540 µM.

Question: With G35A C71G as the variant, how does the KM read?
Answer: The KM was 26.4 ± 25 µM.

Question: For A36G A53U, which KM is on record?
Answer: The KM was 4580 ± 2300 µM.

Question: A36G U47G C71G was tested. Which KM did it give?
Answer: Its KM is 385 ± 300 µM.

Question: A36U C61A was tested. Which KM did it give?
Answer: The KM was 585 ± 530 µM.

Question: Which KM does the source give for A36U C68G here?
Answer: The KM was 61.3 ± 46 µM.

Question: How did the KM turn out when A36U U57A G66C was run?
Answer: The KM was 10.3 ± 8.9 µM.

Question: Which KM does the source give for G37A A53C C71U here?
Answer: Its KM is 1010 ± 85 µM.

Question: Which KM does the source give for G37A A64G here?
Answer: The KM was 5780 ± 3900 µM.

Question: For G37A G43A, which KM is on record?
Answer: Its KM is 1190 ± 620 µM.

Question: For G37A G59A, which KM is on record?
Answer: Its KM is 227 ± 160 µM.

Question: Which KM does the source give for G37A U46G here?
Answer: Its KM is 1970 ± 1400 µM.

Question: With G37A U47A as the variant, how does the KM read?
Answer: The KM was 8130 ± 4700 µM.

Question: Which KM does the source give for G37A U49G here?
Answer: Its KM is 2240 ± 1400 µM.

Question: How did the KM turn out when G37A U55A was run?
Answer: The KM was 4600 ± 2700 µM.

Question: G37A U65G was tested. Which KM did it give?
Answer: Its KM is 3870 ± 390 µM.

Question: Which KM does the source give for G37C C67U here?
Answer: Its KM is 315 ± 270 µM.

Question: For G37C G60C, which KM is on record?
Answer: The KM was 204 ± 110 µM.

Question: With G37C U45A as the variant, how does the KM read?
Answer: The KM was 5840 ± 1900 µM.

Question: Which KM does the source give for G37U C61A here?
Answer: The KM was 323 ± 250 µM.

Question: With G37U C70A as the variant, how does the KM read?
Answer: The KM was 51.1 ± 45 µM.

Question: With G37U C71A as the variant, how does the KM read?
Answer: Its KM is 471 ± 420 µM.

Question: Which KM does the source give for G38A C61A G66U U69C C70U here?
Answer: Its KM is 94.6 ± 48 µM.

Question: G38A C70G was tested. Which KM did it give?
Answer: Its KM is 114 ± 72 µM.

Question: With G38C C67U C70G as the variant, how does the KM read?
Answer: The KM was 175 ± 140 µM.

Question: Which KM does the source give for G38C C71A here?
Answer: Its KM is 320 ± 230 µM.

Question: G38C U65C C71G was tested. Which KM did it give?
Answer: Its KM is 17.6 ± 11 µM.

Question: For G38U G66C C71U, which KM is on record?
Answer: The KM was 50.4 ± 32 µM.

Question: Which KM does the source give for A39C A42G here?
Answer: The KM was 1490 ± 310 µM.

Question: Which KM does the source give for A39C A42U here?
Answer: Its KM is 2470 ± 1400 µM.

Question: A39C A48U was tested. Which KM did it give?
Answer: The KM was 2930 ± 1400 µM.

Question: For A39C A64U, which KM is on record?
Answer: Its KM is 609 ± 600 µM.

Question: A39C C58A was tested. Which KM did it give?
Answer: The KM was 31900 ± 19000 µM.

Question: For A39C G40C, which KM is on record?
Answer: The KM was 1590 ± 47 µM.

Question: Which KM does the source give for A39C U56A here?
Answer: Its KM is 4000 ± 1500 µM.

Question: Which KM does the source give for A39C U69C here?
Answer: Its KM is 999 ± 630 µM.

Question: With A39G A42C as the variant, how does the KM read?
Answer: The KM was 1060 ± 630 µM.

Question: Which KM does the source give for A39G A48C here?
Answer: The KM was 2140 ± 600 µM.

Question: A39G A48G was tested. Which KM did it give?
Answer: The KM was 1140 ± 840 µM.

Question: For A39G A53G, which KM is on record?
Answer: The KM was 2770 ± 830 µM.

Question: A39G C50A was tested. Which KM did it give?
Answer: Its KM is 4350 ± 2200 µM.

Question: With A39G C67A as the variant, how does the KM read?
Answer: Its KM is 854 ± 520 µM.

Question: How did the KM turn out when A39G C68G was run?
Answer: Its KM is 139 ± 120 µM.

Question: How did the KM turn out when A39G C71G was run?
Answer: The KM was 147 ± 130 µM.

Question: How did the KM turn out when A39G G40U was run?
Answer: Its KM is 1420 ± 510 µM.

Question: With A39G G43A as the variant, how does the KM read?
Answer: The KM was 5960 ± 2100 µM.

Question: Which KM does the source give for A39G G43U here?
Answer: The KM was 1170 ± 240 µM.

Question: For A39G G66U, which KM is on record?
Answer: The KM was 1960 ± 79 µM.

Question: With A39G U45G as the variant, how does the KM read?
Answer: Its KM is 919 ± 540 µM.

Question: How did the KM turn out when A39G U47A was run?
Answer: The KM was 1300 ± 800 µM.

Question: Which KM does the source give for A39G U54A here?
Answer: The KM was 282 ± 100 µM.

Question: A39G U69G was tested. Which KM did it give?
Answer: Its KM is 55.4 ± 53 µM.

Question: A39U A42G was tested. Which KM did it give?
Answer: Its KM is 1440 ± 690 µM.

Question: Which KM does the source give for A39U A53G here?
Answer: Its KM is 1410 ± 620 µM.

Question: A39U C50A was tested. Which KM did it give?
Answer: The KM was 12300 ± 1900 µM.

Question: For A39U C58A, which KM is on record?
Answer: The KM was 15200 ± 5300 µM.

Question: Which KM does the source give for A39U C67G here?
Answer: The KM was 1290 ± 420 µM.

Question: With A39U C68U as the variant, how does the KM read?
Answer: The KM was 1340 ± 420 µM.

Question: Which KM does the source give for A39U C71G here?
Answer: Its KM is 3300 ± 1600 µM.

Question: Which KM does the source give for A39U G40U C70U here?
Answer: The KM was 334 ± 250 µM.

Question: Which KM does the source give for A39U G41A here?
Answer: Its KM is 651 ± 93 µM.

Question: How did the KM turn out when A39U U49G was run?
Answer: The KM was 2400 ± 1200 µM.

Question: A39U U56C was tested. Which KM did it give?
Answer: Its KM is 2130 ± 950 µM.

Question: Which KM does the source give for A39U U56G here?
Answer: Its KM is 7160 ± 3700 µM.

Question: For G40A A52U, which KM is on record?
Answer: The KM was 4800 ± 3200 µM.

Question: G40A A53C was tested. Which KM did it give?
Answer: The KM was 2000 ± 1300 µM.

Question: With G40A A53U as the variant, how does the KM read?
Answer: The KM was 2130 ± 1300 µM.

Question: For G40A A64C, which KM is on record?
Answer: Its KM is 2850 ± 1500 µM.

Variants of: B1
Assay: self-cleavage kobs at 10000 uM GlcN6P; higher = faster cleavage; RNA array
Settings: with glucosamine-6-phosphate
Outline: as §1

Question: With A33U U65A as the variant, how does the “self-cleavage kobs at 10000 uM GlcN6P” value read?
Answer: Its value is 1.56e-05 ± 1.5e-05 s⁻¹.

Question: How did the “self-cleavage kobs at 10000 uM GlcN6P” value turn out when G35A C50G was run?
Answer: Its value is 0.000476 ± 0.00031 s⁻¹.

Question: How did the “self-cleavage kobs at 10000 uM GlcN6P” value turn out when G37C C67U was run?
Answer: The value was 2.44e-05 ± 1.3e-05 s⁻¹.

Question: A39G C50A was tested. Which “self-cleavage kobs at 10000 uM GlcN6P” value did it give?
Answer: Its value is 2.28e-05 ± 1.2e-05 s⁻¹.

Variants of: B1
Assay: self-cleavage kobs at 40 uM GlcN6P; higher = faster cleavage; RNA array
Settings: with glucosamine-6-phosphate
Outline: as §1

Question: How did the “self-cleavage kobs at 40 uM GlcN6P” value turn out when G35A C50G was run?
Answer: The value was 1.94e-05 ± 1.5e-05 s⁻¹.

Question: With A39U G41A as the variant, how does the “self-cleavage kobs at 40 uM GlcN6P” value read?
Answer: The value was 1.48e-05 ± 8.6e-06 s⁻¹.

Question: For A39U U49G, which “self-cleavage kobs at 40 uM GlcN6P” value is on record?
Answer: Its value is 2.58e-05 ± 1.8e-05 s⁻¹.

Variants of: B1
Assay: self-cleavage kobs at 160 uM GlcN6P; higher = faster cleavage; RNA array
Settings: with glucosamine-6-phosphate
Outline: as §1

Question: With A36U C68G as the variant, how does the “self-cleavage kobs at 160 uM GlcN6P” value read?
Answer: The value was 0.000311 ± 0.0002 s⁻¹.

Question: How did the “self-cleavage kobs at 160 uM GlcN6P” value turn out when G38A C61A G66U U69C C70U was run?
Answer: The value was 2.83e-05 ± 1.9e-05 s⁻¹.

Question: Which “self-cleavage kobs at 160 uM GlcN6P” value does the source give for A39G C67A here?
Answer: The value was 0.000419 ± 0.00032 s⁻¹.

Question: For A39U U49G, which “self-cleavage kobs at 160 uM GlcN6P” value is on record?
Answer: Its value is 2.46e-05 ± 1.7e-05 s⁻¹.

Variants of: B1
Assay: self-cleavage kobs at 2500 uM GlcN6P; higher = faster cleavage; RNA array
Settings: with glucosamine-6-phosphate
Outline: as §1

Question: Which “self-cleavage kobs at 2500 uM GlcN6P” value does the source give for A36U C68G here?
Answer: The value was 0.000266 ± 0.00018 s⁻¹.

Question: For G37A G43A, which “self-cleavage kobs at 2500 uM GlcN6P” value is on record?
Answer: The value was 2.19e-05 ± 1.1e-05 s⁻¹.

Question: How did the “self-cleavage kobs at 2500 uM GlcN6P” value turn out when G38A C70G was run?
Answer: The value was 1.8e-05 ± 1.6e-05 s⁻¹.

Question: With A39C C58A as the variant, how does the “self-cleavage kobs at 2500 uM GlcN6P” value read?
Answer: The value was 1.47e-05 ± 1.4e-05 s⁻¹.

Question: With A39G C67A as the variant, how does the “self-cleavage kobs at 2500 uM GlcN6P” value read?
Answer: The value was 0.308 ± 0.22 s⁻¹.

Question: Which “self-cleavage kobs at 2500 uM GlcN6P” value does the source give for A39G U54A here?
Answer: The value was 0.0184 ± 0.0098 s⁻¹.

Question: For G40A A64C, which “self-cleavage kobs at 2500 uM GlcN6P” value is on record?
Answer: Its value is 2.96e-05 ± 1.7e-05 s⁻¹.

Variants of: B1
Assay: self-cleavage kobs at 640 uM GlcN6P; higher = faster cleavage; RNA array
Settings: with glucosamine-6-phosphate
Outline: as §1

Question: G38A C61A G66U U69C C70U was tested. Which “self-cleavage kobs at 640 uM GlcN6P” value did it give?
Answer: The value was 3.9e-05 ± 2.4e-05 s⁻¹.

Question: How did the “self-cleavage kobs at 640 uM GlcN6P” value turn out when A39C A42U was run?
Answer: Its value is 2.63e-05 ± 1.5e-05 s⁻¹.

Question: For A39G A48G, which “self-cleavage kobs at 640 uM GlcN6P” value is on record?
Answer: The value was 3.18e-05 ± 1.7e-05 s⁻¹.

Question: For A39U C58A, which “self-cleavage kobs at 640 uM GlcN6P” value is on record?
Answer: The value was 1.67e-05 ± 9.5e-06 s⁻¹.
